Results are given in words; binding and its absence hold for the method and conditions named. For some of these results: Binding seen in cells or lysates may run through a third protein. Some entries that bind do so weakly or less than the wild type. For some of these results: Where a sequence is shown, tags or fusion partners need not be part of it.
Each binder was assayed against purified human caspase-9 (human) (UniProt P55211) (assay: cellulose-bound peptide spot array incubated with purified caspase-9, anti-caspase-9 antibody, ECL).

Amino acid sequences for entries named in this document (tags omitted).
UniProt P55211: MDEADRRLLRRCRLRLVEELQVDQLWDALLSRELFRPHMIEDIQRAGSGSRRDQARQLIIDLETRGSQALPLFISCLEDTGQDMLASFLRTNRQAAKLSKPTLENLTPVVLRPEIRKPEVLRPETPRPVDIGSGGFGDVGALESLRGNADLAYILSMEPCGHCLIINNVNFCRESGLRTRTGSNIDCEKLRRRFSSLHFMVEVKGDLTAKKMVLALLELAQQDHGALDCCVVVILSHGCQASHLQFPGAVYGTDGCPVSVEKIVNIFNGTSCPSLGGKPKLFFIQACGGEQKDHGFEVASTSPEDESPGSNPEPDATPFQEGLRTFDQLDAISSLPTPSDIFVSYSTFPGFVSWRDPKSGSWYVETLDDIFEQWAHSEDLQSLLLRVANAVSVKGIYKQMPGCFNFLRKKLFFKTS
UniProt P63330: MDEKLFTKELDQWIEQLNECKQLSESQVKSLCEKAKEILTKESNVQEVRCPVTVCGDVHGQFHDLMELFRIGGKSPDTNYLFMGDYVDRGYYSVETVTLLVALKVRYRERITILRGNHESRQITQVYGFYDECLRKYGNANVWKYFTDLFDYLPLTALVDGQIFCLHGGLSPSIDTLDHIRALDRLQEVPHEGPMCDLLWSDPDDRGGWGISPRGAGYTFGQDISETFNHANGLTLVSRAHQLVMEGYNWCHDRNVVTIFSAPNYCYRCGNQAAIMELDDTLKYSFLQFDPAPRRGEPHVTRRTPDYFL

binding, binds:
LDHIRALDRLQE (bound to an amino-derived cellulose membrane (spot synthesis))
RALDRLQEVPHE (bound to an amino-derived cellulose membrane (spot synthesis))
LDRLQEVPHEGP (bound to an amino-derived cellulose membrane (spot synthesis))
HIRALDRLQEVP (bound to an amino-derived cellulose membrane (spot synthesis))
DTLDHIRALDRL (bound to an amino-derived cellulose membrane (spot synthesis))

What follows are binders tested against PP2Ac (catalytic subunit of PP2A) from lysate of IL-2-stimulated murine TS1αβ cells (mouse) (UniProt P63330) (assay: pull-down from IL-2-stimulated TS1αβ cell lysate with biotinylated peptide on streptavidin beads, Western blot).

binding, binds:
VKKKKIKREIKIYIETLDGILEQWARSEDL (biotinylated (position not given)) [DPT-C9 (fusion of DPT-sh1 shuttle and C9 sequence)]
YIETLDGILEQWARSEDL (biotinylated (position not given)) [C9 peptide (mouse caspase-9 aa 401-418, PP2Ac binding domain)]

From US20130303439A1, “CHIMERIC PEPTIDES INCLUDING A PENETRATING PEPTIDE AND A BINDING DOMAIN OF PP2A CATALYTIC SUBUNIT TO CASPASE-9” (Institut National de la Sante et de la Recherche Medicale …, priority 2010, published 2013)
